{"source": "patent US5854010A", "about": "“Bioassay for detecting 2,3,7,8-tetrachlorodibenzo-para-dioxin and TCDD-like compounds and novel recombinant cell line useful therefor” (priority 1997, dated 1998)", "key": {"101L cells": {"system": "101L cells", "settings": "cited from earlier work"}, "mouse H1L1.1 cells": {"system": "mouse H1L1.1 cells", "assay": "Luciferase induction by TCDD in DMSO or serum, 96-well, 4 h; detection limits (FIG. 8)", "type": "cell-based", "method": "Specifically, since it is desired to utilize the present bioassay system directly to detect PAHs in samples without the need for solvent extraction and concentration, the dose-dependence of luciferase induction in cells incubated with increasing concentrations of TCDD in serum versus that observed with increasing concentrations of TCDD in DMSO was examined. In other words, the present bioassay system should be advantageously employed directly with a sample of serum from an animal or human, where the sample may contain TCDD or other PAHs and the serum is the solvent, whereby solvent extraction of the sample with DMSO as the solvent is unnecessary.\nThe cells were incubated with the respective increasing concentrations of TCDD for 4 hours and luciferase activity of cell lysates determined as follows.\nMore particularly, mouse H1L1.1 cells were grown in 10% fetal calf serum (purchased from Atlanta Biologicals) in RPMI 1640 media (purchased from Gibco) in T flasks to near confluence and then harvested with trypsin. The cells were washed in saline containing 10% fetal calf serum, resuspended to a concentration of 1.25×10^6 cells/ml, plated in 100 μl volumes in Dynatech 96-well viewplates, and incubated overnight at 37° C. in a 4.8% humidified atmosphere of CO2.\nChemical treatment was carried out by direct addition of TCDD-containing serum to these cultures or direct addition of TCDD-containing DMSO (1 μl/100 μl media) to the wells in triplicate followed by plate mixing on a microplate vortexer. The cultures were incubated for 4 hours at 37° C., followed by washing of the cells with saline and addition of 100 μl of cell lysis buffer (25 mM of tris phosphate, pH 7.8, 2 mM of dithiothreitol, 2 mM of 1,2-diaminocyclohexane-N,N,N'N'-tetracetic acid, 10% glycerol, and 1% Triton X-100).\nAfter incubation for an additional 15 minutes, luciferase activity in the lysed cells was determined. Luciferase activity was sensitively measured using its bioluminescent substrate, luciferin in a Dynatech ML3000 microplate luminometer. In these experiments, cells either kept intact or lysed using luciferase lysis buffer (purchased from Promega) and luciferase activity in an aliquot of the lysate was determined by automatic injection of assay reagent and measurement of the resulting bioluminescence."}}, "note": "Read-outs that look alike come from different tables or passages of the source."}
{"smiles": "Clc1cc2c(cc1Cl)Oc1cc(Cl)c(Cl)cc1O2", "note": "[TCDD, 2,3,7,8-tetrachlorodibenzo-para-dioxin]", "values": [{"measurement": "Sensitivity of TCDD per sample", "setting": "101L cells; Table 10 of Anderson et al.", "value": 0.05, "unit": "ng/g"}, {"measurement": "Sensitivity of TCDD per sample", "setting": "101L cells; conversion of 0.05 ng/g", "value": "50,000 parts per quadrillion"}, {"measurement": "Sensitivity of the assay of TCDD in DMSO", "setting": "mouse H1L1.1 cells; TCDD in DMSO", "value": "< 1", "unit": "pg"}, {"measurement": "Serum concentration of TCDD above which a significant response over background was observed", "setting": "mouse H1L1.1 cells; TCDD in serum, 4 h", "value": "above 50 pM"}, {"measurement": "Serum concentration of TCDD corresponding to significant response", "setting": "mouse H1L1.1 cells; TCDD in serum, corresponds to 50 pM", "value": "approximately 16 ppt"}, {"measurement": "Lower sensitivity of TCDD in serum than in DMSO", "setting": "mouse H1L1.1 cells; serum vs DMSO", "value": "1-2 orders of magnitude"}]}
